This is an account of results in PMC7953810, “Divergent CPEB prion-like domains reveal different assembly mechanisms for a generic amyloid-like fold” (BMC Biology, 2021).

Results are given in words; binding and its absence hold for the method and conditions named. For some assays here: Binding can be weak; no strength is given.

In assay [1] the target is T1, Q-binding peptide 1, minimal active core (QBP1-M8).
T1 sequence (peptide, N-terminal acetylation; C-terminal amidation): WKWWPGIF
Description: ITC; ApCPEB PLD (180 μM) injected into the cell loaded with peptide (495 μM QBP1 or 84 μM SCR), VP-ITC, 25 °C, PBS pH 7.4; no quantitative analysis of the titration curves; both purified.

The target in assay [2] is T2, scrambled version of QBP1 (SCR).
T2 sequence (peptide, N-terminal acetylation; C-terminal amidation): WPIWKGWF
In words: condition: 180 μM ApCPEB PLD injected into 84 μM SCR; ITC; ApCPEB PLD (180 μM) injected into the cell loaded with peptide (495 μM QBP1 or 84 μM SCR), VP-ITC, 25 °C, PBS pH 7.4; no quantitative analysis of the titration curves; both purified.

As to “neuronal Aplysia CPEB prion-like domain (residues 1-160) (domain or fragment)”, the binding result is “binds” in assay [1] and “no binding” in assay [2].
